{"source": "patent US20230248646A1", "about": "(The General Hospital Corporation, priority 2013, published 2023)", "experiment": "Phase 1 pharmacokinetic study of inhaled cromolyn, plasma", "format": "in vivo, human", "note": "The name of at least one read-out is uncertain."}
{"molecule": "O=C(O)c1cc(=O)c2c(OCC(O)COc3cccc4oc(C(=O)O)cc(=O)c34)cccc2o1", "note": "[cromolyn, 5,5′-(2-hydroxypropane-1,3-diyl)bis(oxy)bis(4-oxo-4H-chromene-2-carboxylic acid)]", "values": [{"measurement": "time of Cmax range", "setting": "double dose (34.2 mg) inhalation", "value": "6 to 60", "unit": "min"}, {"measurement": "time of Cmax", "setting": "single dose (17.1 mg) inhalation, mean ± SD", "value": "22.8 ± 16.6", "unit": "min"}, {"measurement": "time of Cmax range", "setting": "single dose (17.1 mg) inhalation", "value": "6 to 60", "unit": "min"}]}
